Measured values published in PubChem BioAssay AID330 (DTP/NCI, 2004).
The list does not hold the whole screen: it gathers tests that were run many times, whatever their T/C, doses with no T/C, and many T/C values between a quarter and a half above the control. Other doses and runs of a compound stand elsewhere. T/C: endpoint of the treated group in % of that of the vehicle group. Some entries give survivors of the animals treated and no T/C: the source files T/C as zero there, which appears to mark a toxic dose or a test without result, not a measured value. Some survivor counts are full or nearly so, which does not show that the dose was tolerated: survival well below the control is almost never listed, so the zero probably covers shortened survival too. Survivors were counted at the toxicity check, usually on the fifth day, unless a day is given; later deaths do not show. Schedules are NCI's codes, taken here to give the interval after Q, in days (D) or hours (H), and the number of doses after X. Some entries hold several experiments; their values stand side by side, smallest first. For survival time, the PubChem record calls one and a half times the control and up active, and a quarter to a half above the control has no call in these data; cut-offs in other NCI protocols can differ. Some T/C values carry the count of animals alive at the toxicity check (mostly the fifth day); where none is given, no animal had died by that day.

Tested on: P388 leukemia ip, CD2F1 mice, survival T/C
Experiment: NCI In Vivo Anticancer Drug Screen. Data for tumor model P388 Leukemia (intraperitoneal) in CD2F1 (CDF1) mice
Conditions: T/C endpoint: median survival time, higher T/C = longer survival
[1] = dose: 25.0 mg/kg/injection, schedule: Q01DX009 (ip), vehicle: Klucel (hydroxypropylcellulose) (HPC)
[2] = dose: 50.0 mg/kg/injection, schedule: Q01DX009 (ip), vehicle: Klucel (hydroxypropylcellulose) (HPC)
[3] = dose: 100.0 mg/kg/injection, schedule: Q04DX003 (ip), vehicle: saline
[4] = dose: 400.0 mg/kg/injection, schedule: Q04DX002 (ip), vehicle: saline with Tween-80
[5] = dose: 50.0 mg/kg/injection, schedule: Q01DX005 (ip), vehicle: Klucel (hydroxypropylcellulose) (HPC)
[6] = dose: 100.0 mg/kg/injection, schedule: Q01DX005 (ip), vehicle: Klucel (hydroxypropylcellulose) (HPC)
[7] = dose: 200.0 mg/kg/injection, schedule: Q01DX005 (ip), vehicle: Klucel (hydroxypropylcellulose) (HPC)
[8] = dose: 200.0 mg/kg/injection, schedule: Q01DX009 (ip), vehicle: saline with Tween-80
[9] = dose: 50.0 mg/kg/injection, schedule: Q01DX005 (ip), vehicle: saline with Tween-80

Question: What does the source list for `COC1=C(OC)C(=O)C(SCCCCCCC2CCCCC2)=C(Cl)C1=O`?
Answer: survivor count (dose: 3.13 mg/kg/injection, schedule: Q01DX009 (ip), vehicle: Klucel (hydroxypropylcellulose) (HPC)): 5 of 6; survivor count (dose: 6.25 mg/kg/injection, schedule: Q01DX009 (ip), vehicle: Klucel (hydroxypropylcellulose) (HPC)): 5 of 6; survivor count (dose: 12.5 mg/kg/injection, schedule: Q01DX009 (ip), vehicle: Klucel (hydroxypropylcellulose) (HPC)): 3 of 6; survivor count [1]: 3 of 6; survivor count [2]: 0 of 6

Question: How did the survivor count (dose: 100.0 mg/kg/injection, schedule: Q04DX002 (ip), vehicle: Klucel (hydroxypropylcellulose) (HPC)) turn out when `O=C1CS/C(=N/C(=O)Nc2ccc(Cl)cc2)N1` was run?
Answer: 6 of 6

Question: And the survivor count (dose: 200.0 mg/kg/injection, schedule: Q04DX002 (ip), vehicle: Klucel (hydroxypropylcellulose) (HPC))?
Answer: 6 of 6

Question: Which survivor count (dose: 50.0 mg/kg/injection, schedule: Q01DX009 (ip), vehicle: saline) does the source give for `C/C(=C/c1cc(Br)c(O)c(Br)c1)[N+](=O)[O-]` here?
Answer: 1 of 6 and 6 of 6

Question: What about the T/C (dose: 50.0 mg/kg/injection, schedule: Q04DX003 (ip), vehicle: saline) of the same compound?
Answer: 130 % of control

Question: And the survivor count [3]?
Answer: 3 of 6

Question: What about the survivor count (dose: 200.0 mg/kg/injection, schedule: Q04DX003 (ip), vehicle: saline with Tween-80) of the same compound?
Answer: 1 of 6

Question: What about the survivor count (dose: 400.0 mg/kg/injection, schedule: Q04DX003 (ip), vehicle: saline with Tween-80) of the same compound?
Answer: 0 of 6

Question: For `NCC(=O)NCC(=O)NC1(C(=O)O)CCCC1`, which T/C (dose: 200.0 mg/kg/injection, schedule: Q01DX005 (ip), vehicle: saline) is on record?
Answer: 134 % of control

Question: For `S=c1[nH]c(N2CCOCC2)ncc1-c1ccccc1`, which survivor count [4] is on record?
Answer: 6 of 6

Question: Which survivor count (dose: 100.0 mg/kg/injection, schedule: Q01DX009 (ip), vehicle: olive oil, sesame oil, peanut oil) does the source give for `c1ccc(P2(c3ccccc3)(c3ccccc3)OCC3CC32)cc1` (stereo unspecified) here?
Answer: 6 of 6

Question: And the survivor count (dose: 200.0 mg/kg/injection, schedule: Q01DX009 (ip), vehicle: olive oil, sesame oil, peanut oil)?
Answer: 6 of 6

Question: What does the source list for `C[C@H]1CC[C@@H]2[C@@H](C)[C@H]3[C@H](C[C@H]4[C@@H]5CC=C6C[C@@H](O)CC[C@]6(C)[C@H]5C[C@H](O)[C@]34C)N2C1`?
Answer: T/C [5]: 88, 98, 102, 109, 118 % of control; T/C [6]: 93, 99, 102, 107 % of control; survivor count [6]: 2 of 6; T/C [7]: 94 and 127 % of control; survivor count [7]: 0 of 6 and 1 of 6; survivor count (dose: 400.0 mg/kg/injection, schedule: Q01DX005 (ip), vehicle: Klucel (hydroxypropylcellulose) (HPC)): 0 of 6

Question: Which results are given for `COc1cccc(C2CC(C)(O)Oc3cc4c(cc32)OCO4)c1` (stereo unspecified)?
Answer: survivor count (dose: 120.0 mg/kg/injection, schedule: Q01DX005 (ip), vehicle: Klucel (hydroxypropylcellulose) (HPC)): 6 of 6; survivor count (dose: 240.0 mg/kg/injection, schedule: Q01DX005 (ip), vehicle: Klucel (hydroxypropylcellulose) (HPC)): 6 of 6

Question: Which T/C (dose: 6.6 mg/kg/injection, schedule: Q01DX009 (ip), vehicle: saline with Tween-80) does the source give for `O=C(Nc1ccc(NC(=O)c2ccc(C3=NCCCN3)cc2)cc1)Nc1ccc(C2=NCCCN2)cc1` here?
Answer: 140 % of control

Question: What about the T/C (dose: 15.0 mg/kg/injection, schedule: Q01DX009 (ip), vehicle: saline with Tween-80) of the same compound?
Answer: 136 % of control [5 of 6 alive]

Question: What about the survivor count (dose: 40.0 mg/kg/injection, schedule: Q01DX009 (ip), vehicle: saline) of the same compound?
Answer: 3 of 6

Question: What about the survivor count [3] of the same compound?
Answer: 0 of 6

Question: And the survivor count (dose: 200.0 mg/kg/injection, schedule: Q04DX003 (ip), vehicle: saline)?
Answer: 0 of 6

Question: And the survivor count (dose: 400.0 mg/kg/injection, schedule: Q04DX003 (ip), vehicle: saline)?
Answer: 0 of 6

Question: For `[O-]c1n[n+](-c2ccccc2)ns1`, which survivor count (dose: 50.0 mg/kg/injection, schedule: Q01DX009 (ip), vehicle: distilled water + Tween-80) is on record?
Answer: 1 of 6 and 4 of 6

Question: And the survivor count (dose: 100.0 mg/kg/injection, schedule: Q01DX009 (ip), vehicle: distilled water + Tween-80)?
Answer: 1 of 6

Question: And the survivor count (dose: 200.0 mg/kg/injection, schedule: Q01DX009 (ip), vehicle: distilled water + Tween-80)?
Answer: 0 of 6

Question: How did the survivor count [8] turn out when `Cc1ccc(SSC(=S)Nc2ccccc2)cc1` was run?
Answer: 3 of 6

Question: For `O=C(Nc1nc2ccc([N+](=O)[O-])cc2s1)C(F)(F)C(F)(F)F`, which survivor count (dose: 50.0 mg/kg/injection, schedule: Q01DX009 (ip), vehicle: saline with Tween-80) is on record?
Answer: 4 of 6

Question: And the survivor count (dose: 100.0 mg/kg/injection, schedule: Q01DX009 (ip), vehicle: saline with Tween-80)?
Answer: 0 of 6

Question: What about the survivor count [8] of the same compound?
Answer: 0 of 6

Question: Which survivor count [7] does the source give for `COc1cccc2c1C(=O)C=C(c1ccccc1)S2(=O)=O` here?
Answer: 0 of 6

Question: Which survivor count (dose: 25.0 mg/kg/injection, schedule: Q01DX005 (ip), vehicle: Klucel (hydroxypropylcellulose) (HPC)) does the source give for `C[CH2][Sn]([CH2]C)[O][Sn]([Cl])([CH2]C)[CH2]C` here?
Answer: 1 of 6

Question: And the survivor count [5]?
Answer: 0 of 6

Question: And the survivor count [6]?
Answer: 0 of 6

Question: What about the survivor count [7] of the same compound?
Answer: 0 of 6

Question: Which survivor count (dose: 240.0 mg/kg/injection, schedule: Q01DX005 (ip), vehicle: saline with Tween-80) does the source give for `CC(C)NC(=O)OCCS(=O)c1c(Cl)c(Cl)nn1C` (stereo unspecified) here?
Answer: 3 of 6

Question: With `Cc1ccc2c(c1)C(=O)N(CC[P+](c1ccccc1)(c1ccccc1)c1ccccc1)C2=O` as the compound, how does the T/C (dose: 3.13 mg/kg/injection, schedule: Q01DX009 (ip), vehicle: water) read?
Answer: 129 % of control

Question: What about the T/C (dose: 6.25 mg/kg/injection, schedule: Q01DX009 (ip), vehicle: water, evaluated on day 30) of the same compound?
Answer: 139 % of control

Question: What about the T/C (dose: 6.25 mg/kg/injection, schedule: Q01DX009 (ip), vehicle: water, evaluated on day 45) of the same compound?
Answer: 135 % of control

Question: And the survivor count (dose: 12.5 mg/kg/injection, schedule: Q01DX009 (ip), vehicle: water)?
Answer: 3 of 6

Question: What about the survivor count (dose: 25.0 mg/kg/injection, schedule: Q01DX009 (ip), vehicle: water) of the same compound?
Answer: 0 of 6 and 4 of 6

Question: With `CCCCCCCCCCCCCCCC(=O)O[C@@H]1[C@@H](C)[C@@]2(O)[C@@H](C=C(CO)C[C@]3(O)C(=O)C(C)=C[C@@H]23)[C@H]2[C@]1(OC(C)=O)[C@]2(C)CO` as the compound, how does the T/C (dose: 0.25 mg/kg/injection, schedule: Q01DX005 (ip), vehicle: distilled water + Tween-80) read?
Answer: 135 % of control

Question: And the T/C (dose: 0.5 mg/kg/injection, schedule: Q01DX005 (ip), vehicle: distilled water + Tween-80)?
Answer: 130 % of control [4 of 6 alive]

Question: And the survivor count (dose: 1.0 mg/kg/injection, schedule: Q01DX005 (ip), vehicle: distilled water + Tween-80)?
Answer: 0 of 6

Question: Which results are given for `C/C(=N\NC(=S)N1CC2CCC(CC2)C1)c1cccc(C)n1`?
Answer: T/C (dose: 12.5 mg/kg/injection, schedule: Q01DX005 (ip), vehicle: saline with Tween-80): 135 % of control; T/C [9]: 140 % of control; survivor count [9]: 3 of 6; survivor count (dose: 100.0 mg/kg/injection, schedule: Q01DX005 (ip), vehicle: saline with Tween-80): 2 of 6; survivor count (dose: 200.0 mg/kg/injection, schedule: Q01DX005 (ip), vehicle: saline with Tween-80): 0 of 6

Question: For `CCCCC(CC)C(=O)[O][Pb]([CH2]CCC)([CH2]CCC)[CH2]CCC` (stereo unspecified), which survivor count (dose: 25.0 mg/kg/injection, schedule: Q04DX002 (ip), vehicle: saline with Tween-80) is on record?
Answer: 0 of 6

Question: And the survivor count (dose: 50.0 mg/kg/injection, schedule: Q04DX002 (ip), vehicle: saline with Tween-80)?
Answer: 0 of 6

Question: And the survivor count (dose: 100.0 mg/kg/injection, schedule: Q04DX002 (ip), vehicle: saline with Tween-80)?
Answer: 0 of 6

Question: What about the survivor count (dose: 200.0 mg/kg/injection, schedule: Q04DX002 (ip), vehicle: saline with Tween-80) of the same compound?
Answer: 0 of 6

Question: And the survivor count [4]?
Answer: 0 of 6

Question: How did the T/C [1] turn out when `CC(=O)NC(CC(C)C)C(=O)NC(Cc1ccccc1)C(=O)CCl` (stereo unspecified) was run?
Answer: 127 % of control

Question: What about the survivor count [2] of the same compound?
Answer: 3 of 6

Question: What about the survivor count (dose: 100.0 mg/kg/injection, schedule: Q01DX009 (ip), vehicle: Klucel (hydroxypropylcellulose) (HPC)) of the same compound?
Answer: 0 of 6

Question: What about the survivor count (dose: 200.0 mg/kg/injection, schedule: Q01DX009 (ip), vehicle: Klucel (hydroxypropylcellulose) (HPC)) of the same compound?
Answer: 0 of 6

Question: And the survivor count (dose: 400.0 mg/kg/injection, schedule: Q01DX009 (ip), vehicle: Klucel (hydroxypropylcellulose) (HPC))?
Answer: 0 of 6
